Measured values from US20220054447A1, “CANNABIS COMPOSITIONS AND METHODS” (priority 2018, published 2022).

Experiments:
[1] = Trial 10: collection of cannabis vapor at 210 °C using glass fiber filter pads; settings: RL 0.001
[2] = Volcano Medic, 210 °C, cited from earlier work

## CCCCCc1cc(O)c2c(c1)OC(C)(C)[C@@H]1CCC(C)=C[C@@H]21 [THC, tetrahydrocannabinol, reference compound]
[1]; RPC 293753-04, Trial 10 vapor 210° C., first trap (filter pad extract)
  Cannabinoids in oil by HPLC, sample N11 (Cannabis Vapor In Methanol): 0.310 mg/mL
[1]; RPC 293753-08, Trial 10, trap after filter pad
  Cannabinoids in oil by HPLC, sample N15 (Cannabis Vapor In Methanol): <0.001 mg/mL
[1]; RPC Sample ID 293753-04, Cannabis Vapor In Methanol
  Cannabinoids in oil by HPLC, Client Sample ID N11: 0.310 mg/mL
[1]; RPC Sample ID 293753-08, Cannabis Vapor In Methanol
  Cannabinoids in oil by HPLC, Client Sample ID N15: <0001 mg/mL
[1]; RPC Sample ID 293753-12, Cannabis Vapor In Methanol
  Cannabinoids in oil by HPLC, Client Sample ID P11: 0.347 mg/mL
[2]; loaded dose 10 mg
  THC recovered from the vapor within the first valve balloon: ~6 mg
  THC recovered in first valve balloon, share of loaded dose: 60%
[2]
  THC in the second balloon: less than 0.5 mg
